Mtb cholesterol medium: 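Phenotypic screen: M. tuberculosis growth, cholesterol and DPPC medium, 4 days; the read-out is not stated. Compounds at 50 µM. Direction is inferred from retests: higher values go with more growth inhibition. Of about 69,000 compounds tested this way, about 370 (0.54%) reached 50% or more in at least one test.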
Mtb glucose medium: 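Growth of Mycobacterium tuberculosis over 3 days (7H9 medium with glucose and tyloxapol); the read-out is not stated. Compounds at 50 µM. The record gives no direction; compounds that gave an IC50 in retests scored well above the rest, so higher reads as more growth inhibition. Size under these conditions: about 69,000 compounds, about 760 of them at 50% or above in at least one test.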

Each number is a percent effect as filed. How 0% and 100% were set is not recorded. Most values in the screen are low, and negative values occur. The compounds are a random part of those screened. Two or more numbers in one place are separate tests of the same structure; such repeats can differ widely.

Compound: Cc1nc(C2CCCN2Cc2ccn(C)c(=O)c2)no1 (centres unmarked)
Mtb cholesterol medium: -4.051%
Mtb glucose medium: -15.32%

Compound: [H][C@@]12CCCO[C@]1([H])[C@H](OCC1CCOCC1)CN2C(=O)c1ccnnc1
Mtb cholesterol medium: -7.672%
Mtb glucose medium: 5.851%

Compound: CC(=O)N1CCc2ccc(NC(=O)c3cn(C)nn3)cc2C1
Mtb cholesterol medium: -6.625%
Mtb glucose medium: 24.96%

Compound: CNC(=O)c1cc(S(=O)(=O)C(C)C)cs1
Mtb cholesterol medium: -16.25%
Mtb glucose medium: -5.51%

Compound: O=C(O)C(F)(F)F.[H][C@@]12CCCO[C@]1([H])[C@@H](OCC)CN2CC1CC1
Mtb cholesterol medium: -14.41%
Mtb glucose medium: -8.588%

Compound: Cc1nnc(SCC(=O)c2cc3c(cc2Cl)NC(=O)C3)s1
Mtb cholesterol medium: -13.8%
Mtb glucose medium: 9.112%

Compound: Cc1nc2c(c(Nc3ccccn3)n1)CN(S(C)(=O)=O)CC2
Mtb cholesterol medium: -9.169%
Mtb glucose medium: -10.57%

Compound: CN(C)C(=O)N1CCCC2(CCN(c3ccsc3)C2=O)C1 (centres unmarked)
Mtb cholesterol medium: 10.37% & 0.2872%
Mtb glucose medium: 9.363%

Compound: CCSc1cncc(NCc2ccc(N3CCNC(=O)C3)cc2)n1
Mtb cholesterol medium: -14.27%
Mtb glucose medium: -4.528%

Compound: O=C1CCC(c2nc(C3CCN(C(=O)Cc4cccs4)CC3)no2)N1 (centres unmarked)
Mtb cholesterol medium: -4.431% & -2.2%
Mtb glucose medium: 0.5284%

Compound: CCc1ncc2c(n1)CN(C(C)C(=O)Nc1ccc(Cl)cn1)CC2 (centres unmarked)
Mtb cholesterol medium: -4.072%
Mtb glucose medium: -7.997%

Compound: O=C(c1cc2ccccc2[nH]1)N1CCC(Nc2cccnn2)CC1
Mtb cholesterol medium: -13.99%
Mtb glucose medium: -7.619%

Compound: CN1CCN(S(=O)(=O)c2ncn(C)c2Cl)CC1
Mtb cholesterol medium: -4.771%
Mtb glucose medium: -0.9849% & 20.65%

Compound: O=C1OCCN1CCNCC1(O)CCCN(CCC2CCCCC2)C1=O (centres unmarked)
Mtb cholesterol medium: -8.337% & -5.04%
Mtb glucose medium: 10.84%

Compound: [H][C@@]12CCCO[C@]1([H])[C@H](NC(=O)C1CCC1)CN(Cc1ccoc1)C2
Mtb cholesterol medium: -6.984%
Mtb glucose medium: 12.24%

Compound: Cc1ccc(-c2nc(CN3CCn4c(nnc4C4CC4)C3)co2)cc1
Mtb cholesterol medium: 0.6467%
Mtb glucose medium: -7.835%

Compound: O=C(CCc1cccs1)N1CCCC1c1noc(C2CC2)n1 (centres unmarked)
Mtb cholesterol medium: -5.714%
Mtb glucose medium: 16.21%

Compound: Cc1ncsc1CCN(C)C(=O)CCc1nc2cccnc2n1C
Mtb cholesterol medium: -4.749%
Mtb glucose medium: -12.63%

Compound: COc1ccccc1CC(=O)NCc1ccnc(NC2CC2)c1
Mtb cholesterol medium: 8.808%
Mtb glucose medium: 9.662%

Compound: [H][C@]12CCN(C(=O)c3ccc[nH]3)[C@@]1([H])CCC(=O)N2CCN1CCOCC1
Mtb cholesterol medium: -19.4%
Mtb glucose medium: 8.044%

Compound: O=C(O)C(F)(F)F.[H][C@@]12COC[C@]1(CNS(C)(=O)=O)CN(CC1CCC1)C2
Mtb cholesterol medium: 1.839%
Mtb glucose medium: 0.05162%

Compound: Cc1n[nH]c(C)c1C1CCCN1C(=O)c1cc(Br)c[nH]1 (centres unmarked)
Mtb cholesterol medium: -14.03% & 0.1956%
Mtb glucose medium: 12.31% & 1.742%

Compound: Cc1ccc(C2(CN(C)Cc3sccc3C)CCNCC2)nc1
Mtb cholesterol medium: 1.685%
Mtb glucose medium: 16.64%

Compound: COCCCN1Cc2cccc(NC(=O)c3cc(F)cc(F)c3)c2C1
Mtb cholesterol medium: 14.3% & 4.762%
Mtb glucose medium: 22.05%

Compound: CCc1nc(C2CCCN2C(=O)CCn2cncn2)no1 (centres unmarked)
Mtb cholesterol medium: -2.226%
Mtb glucose medium: 4.945%

Compound: Cc1nnc(NC(=O)NCCN(C(=O)OC(C)(C)C)C2CC2)s1
Mtb cholesterol medium: 8.38%
Mtb glucose medium: 7.936%

Compound: COCCN1CCN(Cc2c(C)noc2C)Cc2ccc(C)nc21.O=C(O)C(F)(F)F.O=C(O)C(F)(F)F
Mtb cholesterol medium: -8.642%
Mtb glucose medium: -4.852% & -1.275%

Compound: COc1ccc(C2SCC(=O)N2c2ncc(C)s2)cc1 (centres unmarked)
Mtb cholesterol medium: 24.47%
Mtb glucose medium: 35.81% & 40.39%

Compound: N#Cc1cccnc1NCCNC(=O)N1CCCC(N2CCCC2)C1 (centres unmarked)
Mtb cholesterol medium: -23.43%
Mtb glucose medium: -19.29% & -4.829%

For reference, 2 entries once more:

{"compound": "Cc1nnc(SCC(=O)c2cc3c(cc2Cl)NC(=O)C3)s1", "Mtb cholesterol medium": -13.8, "Mtb glucose medium": 9.112}
{"compound": "Cc1nc(C2CCCN2Cc2ccn(C)c(=O)c2)no1", "stereo": "centres unmarked", "Mtb cholesterol medium": -4.051, "Mtb glucose medium": -15.32}

Measurements from “University of Dundee, Small-Polar-MMV Screening Library” (2021), ChEMBL document CHEMBL3988442.